According to paper PMC2739719:
Results are given in words; binding and its absence hold for the method and conditions named. Binding seen in cells or lysates may run through a third protein. Here binding means that the protein was enriched with, or labelled near, the bait; the list need not be complete. Where a sequence is shown, tags or fusion partners need not be part of it.

Protein sequences, listed by entry. Tags and fused reporters are not part of them.
UniProt Q92688: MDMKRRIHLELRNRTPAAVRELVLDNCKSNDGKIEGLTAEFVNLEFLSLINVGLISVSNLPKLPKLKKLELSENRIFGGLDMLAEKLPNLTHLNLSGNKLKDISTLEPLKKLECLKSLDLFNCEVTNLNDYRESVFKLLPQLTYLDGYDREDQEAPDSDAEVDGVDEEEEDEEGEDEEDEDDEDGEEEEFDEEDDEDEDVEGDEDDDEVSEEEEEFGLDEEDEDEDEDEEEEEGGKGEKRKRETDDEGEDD
UniProt P42858: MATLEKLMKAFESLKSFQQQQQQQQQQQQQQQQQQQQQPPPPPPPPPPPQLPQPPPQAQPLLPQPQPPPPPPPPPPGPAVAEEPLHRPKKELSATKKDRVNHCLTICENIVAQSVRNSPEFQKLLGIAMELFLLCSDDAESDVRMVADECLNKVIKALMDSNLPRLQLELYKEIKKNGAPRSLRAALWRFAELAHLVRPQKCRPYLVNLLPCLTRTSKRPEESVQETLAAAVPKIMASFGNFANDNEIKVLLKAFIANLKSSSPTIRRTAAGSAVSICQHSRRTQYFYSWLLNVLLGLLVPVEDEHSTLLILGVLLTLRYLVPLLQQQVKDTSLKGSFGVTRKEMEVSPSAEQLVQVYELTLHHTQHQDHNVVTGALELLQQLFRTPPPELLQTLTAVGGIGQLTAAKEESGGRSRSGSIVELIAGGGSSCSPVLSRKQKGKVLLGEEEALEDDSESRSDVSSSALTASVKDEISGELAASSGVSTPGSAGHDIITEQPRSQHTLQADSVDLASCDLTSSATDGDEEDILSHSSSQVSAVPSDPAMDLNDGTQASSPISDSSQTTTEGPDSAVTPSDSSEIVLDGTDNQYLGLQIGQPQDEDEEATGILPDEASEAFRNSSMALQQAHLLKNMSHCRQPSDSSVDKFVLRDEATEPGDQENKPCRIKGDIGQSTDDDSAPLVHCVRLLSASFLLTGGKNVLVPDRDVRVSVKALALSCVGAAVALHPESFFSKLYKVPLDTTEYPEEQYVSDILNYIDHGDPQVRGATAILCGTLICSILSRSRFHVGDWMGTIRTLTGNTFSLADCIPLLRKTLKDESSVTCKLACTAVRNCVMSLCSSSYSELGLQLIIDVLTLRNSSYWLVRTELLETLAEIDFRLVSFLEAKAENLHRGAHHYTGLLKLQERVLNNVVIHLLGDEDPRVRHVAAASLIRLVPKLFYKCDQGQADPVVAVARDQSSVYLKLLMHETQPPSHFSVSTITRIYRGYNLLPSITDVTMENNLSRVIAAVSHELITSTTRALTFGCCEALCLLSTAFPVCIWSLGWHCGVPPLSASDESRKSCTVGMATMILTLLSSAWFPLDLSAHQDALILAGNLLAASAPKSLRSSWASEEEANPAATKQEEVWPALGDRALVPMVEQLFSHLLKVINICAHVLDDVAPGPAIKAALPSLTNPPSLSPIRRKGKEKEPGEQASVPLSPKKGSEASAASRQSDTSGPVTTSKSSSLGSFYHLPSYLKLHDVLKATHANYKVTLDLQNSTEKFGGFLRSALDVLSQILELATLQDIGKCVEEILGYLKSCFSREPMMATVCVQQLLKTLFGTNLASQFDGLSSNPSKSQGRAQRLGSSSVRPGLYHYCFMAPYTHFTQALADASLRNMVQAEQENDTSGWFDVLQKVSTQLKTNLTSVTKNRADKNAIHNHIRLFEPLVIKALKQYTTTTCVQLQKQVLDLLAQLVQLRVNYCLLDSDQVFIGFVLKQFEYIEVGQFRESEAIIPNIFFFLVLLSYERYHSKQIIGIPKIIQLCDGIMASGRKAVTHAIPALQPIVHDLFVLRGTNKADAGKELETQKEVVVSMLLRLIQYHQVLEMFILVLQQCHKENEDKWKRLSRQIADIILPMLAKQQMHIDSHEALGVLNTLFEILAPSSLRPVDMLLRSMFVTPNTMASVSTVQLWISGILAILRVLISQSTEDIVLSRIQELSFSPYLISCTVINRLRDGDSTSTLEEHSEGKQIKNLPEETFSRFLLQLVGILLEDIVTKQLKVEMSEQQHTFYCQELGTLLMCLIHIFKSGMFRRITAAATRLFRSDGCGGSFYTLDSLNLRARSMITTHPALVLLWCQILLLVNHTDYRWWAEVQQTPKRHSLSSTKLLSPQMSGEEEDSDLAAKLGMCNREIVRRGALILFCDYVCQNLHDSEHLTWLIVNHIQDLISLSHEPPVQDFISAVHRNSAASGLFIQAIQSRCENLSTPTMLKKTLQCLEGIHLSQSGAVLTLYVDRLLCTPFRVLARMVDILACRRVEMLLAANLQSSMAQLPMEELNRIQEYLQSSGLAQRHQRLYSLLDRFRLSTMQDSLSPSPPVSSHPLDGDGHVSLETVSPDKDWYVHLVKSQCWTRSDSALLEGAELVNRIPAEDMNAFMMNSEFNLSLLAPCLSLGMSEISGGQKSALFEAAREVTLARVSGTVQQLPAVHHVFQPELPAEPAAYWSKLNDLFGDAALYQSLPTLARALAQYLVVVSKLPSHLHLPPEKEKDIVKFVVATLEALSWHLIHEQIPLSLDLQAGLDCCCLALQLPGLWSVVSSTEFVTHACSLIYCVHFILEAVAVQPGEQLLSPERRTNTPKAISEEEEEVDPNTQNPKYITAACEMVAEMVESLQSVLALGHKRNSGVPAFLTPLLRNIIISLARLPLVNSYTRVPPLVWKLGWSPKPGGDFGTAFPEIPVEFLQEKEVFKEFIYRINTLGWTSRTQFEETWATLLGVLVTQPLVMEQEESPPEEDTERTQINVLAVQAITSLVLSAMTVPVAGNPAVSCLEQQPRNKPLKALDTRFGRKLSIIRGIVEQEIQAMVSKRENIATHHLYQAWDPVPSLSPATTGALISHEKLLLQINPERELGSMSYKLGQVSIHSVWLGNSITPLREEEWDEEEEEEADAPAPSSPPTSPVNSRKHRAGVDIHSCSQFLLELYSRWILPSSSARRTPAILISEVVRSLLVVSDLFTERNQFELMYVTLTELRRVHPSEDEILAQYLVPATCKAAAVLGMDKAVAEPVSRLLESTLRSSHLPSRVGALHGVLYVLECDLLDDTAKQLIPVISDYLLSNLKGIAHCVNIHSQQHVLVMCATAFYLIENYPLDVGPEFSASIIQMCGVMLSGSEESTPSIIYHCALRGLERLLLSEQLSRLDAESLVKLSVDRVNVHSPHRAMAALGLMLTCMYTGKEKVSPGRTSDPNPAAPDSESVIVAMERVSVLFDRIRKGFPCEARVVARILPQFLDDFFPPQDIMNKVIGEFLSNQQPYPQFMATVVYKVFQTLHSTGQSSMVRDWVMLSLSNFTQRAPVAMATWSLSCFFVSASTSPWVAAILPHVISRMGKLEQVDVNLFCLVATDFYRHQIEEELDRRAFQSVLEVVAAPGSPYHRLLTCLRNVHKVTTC
UniProt Q01105: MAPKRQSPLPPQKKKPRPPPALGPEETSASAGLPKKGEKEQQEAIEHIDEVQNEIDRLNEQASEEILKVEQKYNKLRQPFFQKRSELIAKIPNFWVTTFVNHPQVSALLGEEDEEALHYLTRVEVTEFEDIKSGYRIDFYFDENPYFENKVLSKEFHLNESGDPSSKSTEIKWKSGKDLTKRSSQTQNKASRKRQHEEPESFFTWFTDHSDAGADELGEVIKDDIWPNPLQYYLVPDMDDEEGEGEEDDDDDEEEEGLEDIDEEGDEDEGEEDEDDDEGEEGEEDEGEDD
UniProt P12270: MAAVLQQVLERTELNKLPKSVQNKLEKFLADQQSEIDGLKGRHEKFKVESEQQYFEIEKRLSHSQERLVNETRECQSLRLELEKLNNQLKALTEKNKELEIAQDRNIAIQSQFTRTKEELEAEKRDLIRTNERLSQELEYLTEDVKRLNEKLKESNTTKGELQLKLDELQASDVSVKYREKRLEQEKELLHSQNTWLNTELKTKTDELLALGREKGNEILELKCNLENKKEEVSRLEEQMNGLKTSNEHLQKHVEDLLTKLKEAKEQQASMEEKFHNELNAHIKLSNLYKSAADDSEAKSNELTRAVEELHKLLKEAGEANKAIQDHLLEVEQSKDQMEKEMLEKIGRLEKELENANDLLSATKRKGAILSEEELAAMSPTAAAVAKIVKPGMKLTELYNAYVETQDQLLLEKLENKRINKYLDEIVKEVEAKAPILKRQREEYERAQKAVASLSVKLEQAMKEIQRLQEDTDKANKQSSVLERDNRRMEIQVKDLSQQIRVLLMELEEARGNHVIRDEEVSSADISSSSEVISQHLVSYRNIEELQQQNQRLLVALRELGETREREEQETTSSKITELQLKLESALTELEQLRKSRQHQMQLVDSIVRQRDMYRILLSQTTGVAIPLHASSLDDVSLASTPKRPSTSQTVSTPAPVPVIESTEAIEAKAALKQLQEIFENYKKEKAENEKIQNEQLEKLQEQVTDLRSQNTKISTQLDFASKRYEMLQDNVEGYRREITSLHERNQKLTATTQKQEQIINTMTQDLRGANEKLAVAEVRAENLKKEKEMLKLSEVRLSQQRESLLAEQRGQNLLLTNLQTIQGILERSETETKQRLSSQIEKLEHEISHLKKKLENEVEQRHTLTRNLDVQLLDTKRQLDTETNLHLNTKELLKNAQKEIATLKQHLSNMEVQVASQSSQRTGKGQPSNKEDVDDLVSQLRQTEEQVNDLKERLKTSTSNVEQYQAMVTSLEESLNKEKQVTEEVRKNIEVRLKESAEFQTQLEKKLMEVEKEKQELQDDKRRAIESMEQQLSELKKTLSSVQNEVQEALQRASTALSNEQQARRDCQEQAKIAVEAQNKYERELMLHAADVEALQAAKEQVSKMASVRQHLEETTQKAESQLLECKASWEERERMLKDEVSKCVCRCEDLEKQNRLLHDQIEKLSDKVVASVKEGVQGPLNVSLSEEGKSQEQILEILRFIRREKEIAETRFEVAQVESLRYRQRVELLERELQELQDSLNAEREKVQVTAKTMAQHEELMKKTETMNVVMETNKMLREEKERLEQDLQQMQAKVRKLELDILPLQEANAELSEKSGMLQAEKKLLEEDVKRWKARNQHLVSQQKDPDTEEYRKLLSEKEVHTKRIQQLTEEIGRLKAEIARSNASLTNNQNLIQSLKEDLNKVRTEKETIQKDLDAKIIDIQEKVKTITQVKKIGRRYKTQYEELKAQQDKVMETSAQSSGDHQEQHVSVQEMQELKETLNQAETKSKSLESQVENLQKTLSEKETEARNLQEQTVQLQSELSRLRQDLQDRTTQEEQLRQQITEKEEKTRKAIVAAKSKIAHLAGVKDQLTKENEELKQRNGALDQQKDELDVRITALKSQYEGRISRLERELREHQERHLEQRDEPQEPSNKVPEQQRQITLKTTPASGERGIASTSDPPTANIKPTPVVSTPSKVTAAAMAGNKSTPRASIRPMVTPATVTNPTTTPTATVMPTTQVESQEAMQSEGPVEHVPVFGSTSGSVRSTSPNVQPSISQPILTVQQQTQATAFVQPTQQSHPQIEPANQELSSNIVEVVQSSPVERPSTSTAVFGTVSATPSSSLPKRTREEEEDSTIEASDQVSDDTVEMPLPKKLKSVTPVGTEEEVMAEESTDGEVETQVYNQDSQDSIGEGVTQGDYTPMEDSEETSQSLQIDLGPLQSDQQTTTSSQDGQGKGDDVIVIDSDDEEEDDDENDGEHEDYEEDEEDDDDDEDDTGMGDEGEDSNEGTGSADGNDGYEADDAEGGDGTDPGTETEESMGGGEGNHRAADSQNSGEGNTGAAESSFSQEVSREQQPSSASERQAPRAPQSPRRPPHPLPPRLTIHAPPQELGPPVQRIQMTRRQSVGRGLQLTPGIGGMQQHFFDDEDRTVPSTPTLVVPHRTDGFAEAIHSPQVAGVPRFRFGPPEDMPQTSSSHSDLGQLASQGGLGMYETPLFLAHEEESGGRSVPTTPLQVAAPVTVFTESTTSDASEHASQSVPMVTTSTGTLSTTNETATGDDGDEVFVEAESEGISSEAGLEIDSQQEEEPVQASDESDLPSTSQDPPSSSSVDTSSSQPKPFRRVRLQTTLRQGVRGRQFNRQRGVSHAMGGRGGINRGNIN
UniProt P06748: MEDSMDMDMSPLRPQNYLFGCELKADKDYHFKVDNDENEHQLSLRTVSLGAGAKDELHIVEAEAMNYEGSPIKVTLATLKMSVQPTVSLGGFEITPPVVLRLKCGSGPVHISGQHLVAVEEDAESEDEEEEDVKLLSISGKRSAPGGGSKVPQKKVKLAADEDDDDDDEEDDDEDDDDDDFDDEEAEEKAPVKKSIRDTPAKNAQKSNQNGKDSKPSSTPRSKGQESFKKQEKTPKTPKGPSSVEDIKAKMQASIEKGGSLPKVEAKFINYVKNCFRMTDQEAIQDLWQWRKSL
UniProt P16403: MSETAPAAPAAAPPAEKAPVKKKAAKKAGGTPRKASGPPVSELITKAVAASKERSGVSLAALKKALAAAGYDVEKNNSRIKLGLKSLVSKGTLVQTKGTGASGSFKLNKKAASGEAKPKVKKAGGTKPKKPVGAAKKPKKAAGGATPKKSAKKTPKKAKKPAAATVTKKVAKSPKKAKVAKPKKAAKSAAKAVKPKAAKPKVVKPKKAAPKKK

T1: recombinant purified His-tagged human BAF (H6BAF) dimers (human) (UniProt O75531)
T1 sequence: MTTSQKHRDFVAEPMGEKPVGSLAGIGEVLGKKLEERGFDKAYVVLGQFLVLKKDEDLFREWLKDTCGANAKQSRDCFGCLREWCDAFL


Tests used:
[1] = target: T1, recombinant purified His-tagged human BAF (H6BAF) dimers (human); test: affinity purification with mass spectrometry; scaled up: 100 µg Ni-BAF beads, 5 mg HeLa nuclear lysate proteins; 0.3 M and 1 M NaCl eluates of BAF and control beads labelled with iTRAQ 4-plex reagents; enrichment against bead-only controls; only the target purified
[2] = target: T1, recombinant purified His-tagged human BAF (H6BAF) dimers (human); test: affinity purification with mass spectrometry; 30 µg H6BAF dimers on Ni-NTA beads, 500 µg pre-cleared HeLa nuclear lysate (benzonase-treated), 3 hrs 4°C; eluted with 0.3 M then 1 M NaCl; LC-MS/MS of eluates; Ni beads alone as control; only the target purified

Row | binding [1] | binding [2] | Molecule
1 | binds |  | Acidic leucine-rich nuclear phosphoprotein (PHAPI2) (from UniProt Q92688 1-251)
2 | binds |  | Huntingtin (Huntington disease protein) (from UniProt P42858 1-3142)
3 | binds |  | SET (Protein Phosphatase 2A inhibitor, I2PP2A) (from UniProt Q01105 1-290)
4 | binds |  | Nucleoprotein TPR (from UniProt P12270 1-2363)
5 | binds |  | Keratin 2 (from UniProt P35908 1-639)
6 | binds |  | Core histone macro-H2A (from UniProt O75367 1-369)
7 | binds |  | Nucleophosmin (NPM) (from UniProt P06748 1-294)
8 | binds |  | Histone H1.2 (from UniProt P16403 1-213)
9 | binds |  | DNA-directed RNA polymerase beta chain
10 | binds |  | Serine/threonine-protein phosphatase 1 (FB19) (protein, UniProt Q96QC0 1-940) MGSGPIDPKELLKGLDSFLNRDGEVKSVDGISKIFSLMKEARKMVSRCTYLNILLQTRSPEILVKFIDVGGYKLLNNWLTYSKTTNNIPLLQQILLTLQHLPLTVDHLKQNNTAKLVKQLSKSSEDEELRKLASVLVSDWMAVIRSQSSTQPAEKDKKKRKDEGKSRTTLPERPLTEVKAETRAEEAPEKKREKPKSLRTTAPSHAKFRSTGLELETPSLVPVKKNASTVVVSDKYNLKPIPLKRQSNVAAPGDATPPAEKKYKPLNTTPNATKEIKVKIIPPQPMEGLGFLDALNSAPVPGIKIKKKKKVLSPTAAKPSPFEGKTSTEPSTAKPSSPEPAPPSEAMDADRPGTPVPPVEVPELMDTASLEPGALDAKPVESPGDPNQLTRKGRKRKSVTWPEEGKLREYFYFELDETERVNVNKIKDFGEAAKREILSDRHAFETARRLSHDNMEEKVPWVCPRPLVLPSPLVTPGSNSQERYIQAEREKGILQELFLNKESPHEPDPEPYEPIPPKLIPLDEECSMDETPYVETLEPGGSGGSPDGAGGSKLPPVLANLMGSMGAGKGPQGPGGGGINVQEILTSIMGSPNSHPSEELLKQPDYSDKIKQMLVPHGLLGPGPIANGFPPGGPGGPKGMQHFPPGPGGPMPGPHGGPGGPVGPRLLGPPPPPRGGDPFWDGPGDPMRGGPMRGGPGPGPGPYHRGRGGRGGNEPPPPPPPFRGARGGRSGGGPPNGRGGPGGGMVGGGGHRPHEGPGGGMGNSSGHRPHEGPGGGMGSGHRPHEGPGGSMGGGGGHRPHEGPGGGISGGSGHRPHEGPGGGMGAGGGHRPHEGPGGSMGGSGGHRPHEGPGHGGPHGHRPHDVPGHRGHDHRGPPPHEHRGHDGPGHGGGGHRGHDGGHSHGGDMSNRPVCRHFMMKGNCRYENNCAFYHPGVNGPPLP
11 | binds |  | Treacle protein (Treacher Collins syndrome protein) (protein, UniProt Q13428 1-1488) MAEARKRRELLPLIYHHLLRAGYVRAAREVKEQSGQKCFLAQPVTLLDIYTHWQQTSELGRKRKAEEDAALQAKKTRVSDPISTSESSEEEEEAEAETAKATPRLASTNSSVLGADLPSSMKEKAKAETEKAGKTGNSMPHPATGKTVANLLSGKSPRKSAEPSANTTLVSETEEEGSVPAFGAAAKPGMVSAGQADSSSEDTSSSSDETDVEGKPSVKPAQVKASSVSTKESPARKAAPAPGKVGDVTPQVKGGALPPAKRAKKPEEESESSEEGSESEEEAPAGTRSQVKASEKILQVRAASAPAKGTPGKGATPAPPGKAGAVASQTKAGKPEEDSESSSEESSDSEEETPAAKALLQAKASGKTSQVGAASAPAKESPRKGAAPAPPGKTGPAVAKAQAGKREEDSQSSSEESDSEEEAPAQAKPSGKAPQVRAASAPAKESPRKGAAPAPPRKTGPAAAQVQVGKQEEDSRSSSEESDSDREALAAMNAAQVKPLGKSPQVKPASTMGMGPLGKGAGPVPPGKVGPATPSAQVGKWEEDSESSSEESSDSSDGEVPTAVAPAQEKSLGNILQAKPTSSPAKGPPQKAGPVAVQVKAEKPMDNSESSEESSDSADSEEAPAAMTAAQAKPALKIPQTKACPKKTNTTASAKVAPVRVGTQAPRKAGTATSPAGSSPAVAGGTQRPAEDSSSSEESDSEEEKTGLAVTVGQAKSVGKGLQVKAASVPVKGSLGQGTAPVLPGKTGPTVTQVKAEKQEDSESSEEESDSEEAAASPAQVKTSVKKTQAKANPAAARAPSAKGTISAPGKVVTAAAQAKQRSPSKVKPPVRNPQNSTVLARGPASVPSVGKAVATAAQAQTGPEEDSGSSEEESDSEEEAETLAQVKPSGKTHQIRAALAPAKESPRKGAAPTPPGKTGPSAAQAGKQDDSGSSSEESDSDGEAPAAVTSAQVIKPPLIFVDPNRSPAGPAATPAQAQAASTPRKARASESTARSSSSESEDEDVIPATQCLTPGIRTNVVTMPTAHPRIAPKASMAGASSSKESSRISDGKKQEGPATQVSKKNPASLPLTQAALKVLAQKASEAQPPVARTQPSSGVDSAVGTLPATSPQSTSVQAKGTNKLRKPKLPEVQQATKAPESSDDSEDSSDSSSGSEEDGEGPQGAKSAHTLGPTPSRTETLVEETAAESSEDDVVAPSQSLLSGYMTPGLTPANSQASKATPKLDSSPSVSSTLAAKDDPDGKQEAKPQQAAGMLSPKTGGKEAASGTTPQKSRKPKKGAGNPQASTLALQSNITQCLLGQPWPLNEAQVQASVVKVLTELLEQERKKVVDTTKESSRKGWESRKRKLSGDQPAARTPRSKKKKKLGAGEGGEASVSPEKTSTTSKGKAKRDKASGDVKEKKGKGSLGSQGAKDEPEEELQKGMGTVEGGDQSNPKSKKEKKKSDKRKKDKEKKEKKKKAKKASTKDSESPSQKKKKKKKKTAEQTV
12 |  | binds | Lamin B2 (protein, UniProt Q03252 1-620) MSPPSPGRRREQRRPRAAATMATPLPGRAGGPATPLSPTRLSRLQEKEELRELNDRLAHYIDRVRALELENDRLLLKISEKEEVTTREVSGIKALYESELADARRVLDETARERARLQIEIGKLRAELDEVNKSAKKREGELTVAQGRVKDLESLFHRSEVELAAALSDKRGLESDVAELRAQLAKAEDGHAVAKKQLEKETLMRVDLENRCQSLQEELDFRKSVFEEEVRETRRRHERRLVEVDSSRQQEYDFKMAQALEELRSQHDEQVRLYKLELEQTYQAKLDSAKLSSDQNDKAASAAREELKEARMRLESLSYQLSGLQKQASAAEDRIRELEEAMAGERDKFRKMLDAKEQEMTEMRDVMQQQLAEYQELLDVKLALDMEINAYRKLLEGEEERLKLSPSPSSRVTVSRATSSSSGSLSATGRLGRSKRKRLEVEEPLGSGPSVLGTGTGGSGGFHLAQQASASGSVSIEEIDLEGKFVQLKNNSDKDQSLGNWRIKRQVLEGEEIAYKFTPKYILRAGQMVTVWAAGAGVAHSPPSTLVWKGQSSWGTGESFRTVLVNADGEEVAMRTVKKSSVMRENENGEEEEEEAEFGEEDLFHQQGDPRTTSRGCYVM
13 |  | binds | CD2 antigen (cytoplasmic tail) binding protein 2 (protein, UniProt O95400 1-341) MPKRKVTFQGVGDEEDEDEIIVPKKKLVDPVAGSGGPGSRFKGKHSLDSDEEEDDDDGGSSKYDILASEDVEGQEAATLPSEGGVRITPFNLQEEMEEGHFDADGNYFLNRDAQIRDSWLDNIDWVKIRERPPGQRQASDSEEEDSLGQTSMSAQALLEGLLELLLPRETVAGALRRLGARGGGKGRKGPGQPSSPQRLDRLSGLADQMVARGNLGVYQETRERLAMRLKGLGCQTLGPHNPTPPPSLDMFAEELAEEELETPTPTQRGEAESRGDGLVDVMWEYKWENTGDAELYGPFTSAQMQTWVSEGYFPDGVYCRKLDPPGGQFYNSKRIDFDLYT
14 |  | binds | Glycodelin, progesterone associated endometrial protein (protein, UniProt P09466 19-180) MDIPQTKQDLELPKLAGTWHSMAMATNNISLMATLKAPLRVHITSLLPTPEDNLEIVLHRWENNSCVEKKVLGEKTENPKKFKINYTVANEATLLDTDYDNFLFLCLQDTTTPIQSMMCQYLARVLVEDDEIMQGFIRAFRPLPRHLWYLLDLKQMEEPCRF
15 |  | binds | Zinc finger protein 428 (protein, UniProt Q96B54 1-188) MTETREPAETGGYASLEEDDEDLSPGPEHSSDSEYTLSEPDSEEEEDEEEEEEETTDDPEYDPGYKVKQRLGGGRGGPSRRAPRAAQPPAQPCQLCGRSPLGEAPPGTPPCRLCCPATAPQEAPAPEGRALGEEEEEPPRAGEGRPAGREEEEEEEEEGTYHCTECEDSFDNLGELHGHFMLHARGEV
16 |  | binds | Xeroderma pigmentosum complementation group C protein (protein, UniProt Q01831 1-940) MARKRAAGGEPRGRELRSQKSKAKSKARREEEEEDAFEDEKPPKKSLLSKVSQGKRKRGCSHPGGSADGPAKKKVAKVTVKSENLKVIKDEALSDGDDLRDFPSDLKKAHHLKRGATMNEDSNEEEEESENDWEEVEELSEPVLGDVRESTAFSRSLLPVKPVEIEIETPEQAKTRERSEKIKLEFETYLRRAMKRFNKGVHEDTHKVHLLCLLANGFYRNNICSQPDLHAIGLSIIPARFTRVLPRDVDTYYLSNLVKWFIGTFTVNAELSASEQDNLQTTLERRFAIYSARDDEELVHIFLLILRALQLLTRLVLSLQPIPLKSATAKGKKPSKERLTADPGGSSETSSQVLENHTKPKTSKGTKQEETFAKGTCRPSAKGKRNKGGRKKRSKPSSSEEDEGPGDKQEKATQRRPHGRERRVASRVSYKEESGSDEAGSGSDFELSSGEASDPSDEDSEPGPPKQRKAPAPQRTKAGSKSASRTHRGSHRKDPSLPAASSSSSSSKRGKKMCSDGEKAEKRSIAGIDQWLEVFCEQEEKWVCVDCVHGVVGQPLTCYKYATKPMTYVVGIDSDGWVRDVTQRYDPVWMTVTRKCRVDAEWWAETLRPYQSPFMDREKKEDLEFQAKHMDQPLPTAIGLYKNHPLYALKRHLLKYEAIYPETAAILGYCRGEAVYSRDCVHTLHSRDTWLKKARVVRLGEVPYKMVKGFSNRARKARLAEPQLREENDLGLFGYWQTEEYQPPVAVDGKVPRNEFGNVYLFLPSMMPIGCVQLNLPNLHRVARKLDIDCVQAITGFDFHGGYSHPVTDGYIVCEEFKDVLLTAWENEQAVIERKEKEKKEKRALGNWKLLAKGLLIRERLKRRYGPKSEAAAPHTDAGGGLSSDEEEGTSSQAEAARILAASWPQNREDEEKQKLKGGPKKTKREKKAAASHLFPFEQL
17 | binds |  | NonO protein (protein, UniProt Q15233 1-471) MQSNKTFNLEKQNHTPRKHHQHHHQQQHHQQQQQQPPPPPIPANGQQASSQNEGLTIDLKNFRKPGEKTFTQRSRLFVGNLPPDITEEEMRKLFEKYGKAGEVFIHKDKGFGFIRLETRTLAEIAKVELDNMPLRGKQLRVRFACHSASLTVRNLPQYVSNELLEEAFSVFGQVERAVVIVDDRGRPSGKGIVEFSGKPAARKALDRCSEGSFLLTTFPRPVTVEPMDQLDDEEGLPEKLVIKNQQFHKEREQPPRFAQPGSFEYEYAMRWKALIEMEKQQQDQVDRNIKEAREKLEMEMEAARHEHQVMLMRQDLMRRQEELRRMEELHNQEVQKRKQLELRQEEERRRREEEMRRQQEEMMRRQQEGFKGTFPDAREQEIRMGQMAMGGAMGINNRGAMPPAPVPAGTPAPPGPATMMPDGTLGLTPPTTERFGQAATMEGIGAIGGTPPAFNRAAPGAEFAPNKRRRY
